This note sets out measurements from paper PMC11742405.

Results are given in words; binding and its absence hold for the method and conditions named. In cells and extracts the contact can be indirect. Binding can be weak; no strength is given.

The target in this test is PRR33-VN (Venus N-term) (mouse). In words: split reporter; BiFC-Venus: PRR33-VN with VC fusions transfected into 293T cells, fluorescence examined about 24 h later in living cells.

B1: ZYX-VC (Venus C-term) (protein, UniProt Q62523 1-564)
chain: MAAPRPPPAISVSVSAPAFYAPQKKFAPVVAPKPKVNPFRPGDSEPPVAAGAQRAQMGRVGEIPPPPPEDFPLPPPPLIGEGDDSEGALGGAFPPPPPPMIEEPFPPAPLEEDIFPSPPPPLEEEGGPEAPTQLPPQPREKVCSIDLEIDSLSSLLDDMTKNDPFKARVSSGYVPPPVATPFVPKPSTKPAPGGTAPLPPWKTPSSSQPPPQPQAKPQVQLHVQPQAKPHVQPQPVSSANTQPRGPLSQAPTPAPKFAPVAPKFTPVVSKFSPGAPSGPGPQPNQKMVPPDAPSSVSTGSPQPPSFTYAQQKEKPLVQEKQHPQPPPAQNQNQVRSPGGPGPLTLKEVEELEQLTQQLMQDMEHPQRQSVAVNESCGKCNQPLARAQPAVRALGQLFHITCFTCHQCQQQLQGQQFYSLEGAPYCEGCYTDTLEKCNTCGQPITDRMLRATGKAYHPQCFTCVVCACPLEGTSFIVDQANQPHCVPDYHKQYAPRCSVCSEPIMPEPGRDETVRVVALDKNFHMKCYKCEDCGKPLSIEADDNGCFPLDGHVLCRKCHSARAQT
Take B1: the binding entry was “binds”.
